Experimental data: patent US20250019427A1
No constants are given. Whether binding was seen depends on the method and setting. Some results given as binding are weak or reduced against the parent protein; the word gives no strength.

Protein sequences, listed by entry. Tags and fused reporters are not part of them. Lines headed by an entry give the natural chain unless they say otherwise; changes in a name come on top. Residues count along the entry.
UniProt Q9Z0J7, residues 189-303: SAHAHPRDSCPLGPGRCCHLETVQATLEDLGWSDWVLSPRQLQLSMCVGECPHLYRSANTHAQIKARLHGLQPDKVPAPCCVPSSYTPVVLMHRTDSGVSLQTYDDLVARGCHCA
UniProt G7PWZ3: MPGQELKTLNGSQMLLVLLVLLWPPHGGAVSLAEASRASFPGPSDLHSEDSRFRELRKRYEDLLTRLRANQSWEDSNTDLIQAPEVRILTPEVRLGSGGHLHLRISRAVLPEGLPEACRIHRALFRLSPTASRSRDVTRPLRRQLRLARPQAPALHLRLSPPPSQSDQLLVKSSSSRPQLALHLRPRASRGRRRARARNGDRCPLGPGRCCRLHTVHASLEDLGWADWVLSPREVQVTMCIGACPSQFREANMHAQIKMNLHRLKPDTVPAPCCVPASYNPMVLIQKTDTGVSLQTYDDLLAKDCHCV
UniProt P39905, residues 78-211: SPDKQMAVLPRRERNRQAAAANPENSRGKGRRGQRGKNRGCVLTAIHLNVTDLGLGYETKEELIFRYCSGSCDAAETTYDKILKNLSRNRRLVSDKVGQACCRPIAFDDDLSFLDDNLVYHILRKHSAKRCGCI

What was measured:
Mouse GDF15 Fc (mouse) [1] = biological target: Mouse GDF15 Fc (mouse) (UniProt Q9Z0J7); assay: Octet BLI, Fab monovalent; P.F. = binder with poor fit
Mouse GDF15 Fc (mouse) [2] = biological target: Mouse GDF15 Fc (mouse) (UniProt Q9Z0J7); assay: Octet BLI (Tables 5A, 5B)
Cyno GDF15 Fc (cyno) = Cyno GDF15 Fc (cyno) (UniProt G7PWZ3); assay: Octet BLI (Tables 5A, 5B)
GDNF = GDNF (UniProt P39905); assay: Octet BLI, IgG on tip, avid; P.F. = binder with poor fit

Row | Binder | binding (Mouse GDF15 Fc (mouse) [1]) | binding (Mouse GDF15 Fc (mouse) [2]) | binding (Cyno GDF15 Fc (cyno)) | binding (GDNF)
1 | Clone J Fab (Fab, V domains shown) VH: QVQLVQSGAEVKKPGASVKVSCKASGYTFTSYGINWVRQAPGQGLEWMGWIDAYSGSTNYAQKLQGRVTMTTDTSTSTAYMELRSLRSDDTAVYYCARGPGQYADVDVWGQGTMVTVSS VL: DIQMTQSPSSVSASVGDRVTITCRASQGISSWLAWYQQKPGKAPKLLIYAASSLQSGVPSRFSGSGSGTDFTLTISSLQPEDFATYYCQQANSFPITFGGGTKVEIK | binds | binds | binds | –
2 | Clone P Fab (Fab, V domains shown) VH: QVQLVQSGAEVKKPGATVKVSCKASGYTFDSYGIHWVRQAPGQGLEWMGWITAYSGDTVYAQKLQGRVTMTTDTSTSTAYMELRSLRSDDTAVYYCARESGQTSSALGPWGQGTLVTVSS VL: DIQMTQSPSSVSASVGDRVTITCRASQGISRWLAWYQQKPGKAPKLLIYAASSLQSGVPSRFSGSGSGTDFTLTISSLQPEDFATYYCQQGASFPLTFGGGTKVEIK | binds | binds | binds | –
3 | Clone E Fab (Fab, V domains shown) VH: QVQLVQSGAEVKKPGASVKVSCKASGYTFTSYGINWVRQAPGQGLEWMGWITAYSGDTNYAQKLQGRVTMTTDTSTSTAYMELRSLRSDDTAVYYCARGPGQYADVDVWGQGTMVTVSS VL: DIQMTQSPSSVSASVGDRVTITCRASQGISSWLAWYQQKPGKAPKLLIYAASSLQSGVPSRFSGSGSGTDFTLTISSLQPEDFATYYCQQANSFPITFGGGTKVEIK | – | binds | binds | –
4 | Clone I Fab (Fab, V domains shown) VH: QVQLVQSGAEVKKPGASVKVSCKASGYTFTDEGINWVRQAPGQGLEWMGWITAYSGDTVYAQKLQGRVTMTTDTSTSTAYMELRSLRSDDTAVYYCARGPGQYADVDVWGQGTMVTVSS VL: DIQMTQSPSSVSASVGDRVTITCRASQGISSWLAWYQQKPGKAPKLLIYAASSLQSGVPSRFSGSGSGTDFTLTISSLQPEDFATYYCQQANSFPITFGGGTKVEIK | – | binds | binds | –
5 | Clone K Fab (Fab, V domains shown) VH: QVQLVQSGAEVKKPGASVKVSCKASGYTFTNEGISWVRQAPGQGLEWMGWISAYTADTFYAQKLQGRVTMTTDTSTSTAYMELRSLRSDDTAVYYCARTRHDTSGLRFDYWGQGTLVTVSS VL: DIQMTQSPSSVSASVGDRVTITCRASQGIDSWLAWYQQKPGKAPKLLIYAASSLQSGVPSRFSGSGSGTDFTLTISSLQPEDFATYYCQQVHSFPITFGGGTKVEIK | – | binds | binds | –
6 | Clone L Fab (Fab, V domains shown) VH: QVQLVQSGAEVKKPGASVKVSCKASGYTFASYDIIWVRQAPGQGLEWMGWISALSGDTVYAQKLQGRVTMTTDTSTSTAYMELRSLRSDDTAVYYCARTRHDTSGIRFDYWGQGTLVTVSS VL: DIQMTQSPSSVSASVGDRVTITCRASQGIDSWLAWYQQKPGKAPKLLIYAASSLQSGVPSRFSGSGSGTDFTLTISSLQPEDFATYYCQQVHSFPITFGGGTKVEIK | – | binds | binds | –
7 | Clone O Fab (Fab, V domains shown) VH: QVQLVQSGAEVKKPGATVKVSCKASGYTFDSLGMSWVRQAPGQGLEWMGYISTYSGDTVYAQKLQGRVTMTTDTSTSTAYMELRSLRSDDTAVYYCARESGQQVSALDPWGQGTLVTVSS VL: DIQMTQSPSSVSASVGDRVTITCRASQGISRWLAWYQQKPGKAPKLLIYAASSLQSGVPSRFSGSGSGTDFTLTISSLQPEDFATYYCQQGASFPLTFGGGTKVEIK | – | binds | binds | –
8 | Clone S Fab (Fab, V domains shown) VH: QVQLVQSGAEVKKPGASVKVSCKASGYTFTSYGINWVRQAPGQGLEWMGWITAYSGDTNYAQKLQGRVTMTTDTSTSTAYMELRSLRSDDTAVYYCARGPGQYADVDVWGQGTMVTVSS VL: DIQLTQSPSSVSASVGDRVTITCRASQGISPWLAWYQQKPGKAPKLLIYAASSLQSGVPSRFSGSGSGTDFTLTISSLQPEDFATYYCQQANSFPITFGGGTKVEIK | – | binds | binds | –
9 | Clone T Fab (Fab, V domains shown) VH: QVQLVQSGAEVKKPGASVKVSCKASGYTFTSYGINWVRQAPGQGLEWMGWITAYSGDTNYAQKLQGRVTMTTDTSTSTAYMELRSLRSDDTAVYYCARGPGQYADVDVWGQGTMVTVSS VL: DIQMTQSPSSVSASVGDRVTITCRASQGISSWLAWYQQKPGKAPKLLIYAASSLQSGVPSRFSGSGSGTDFTLTISSLQPEDFATYYCQQASQFPITFGGGTKVEIK | – | binds | binds | –
10 | Clone J IgG (antibody, V domains shown) VH: QVQLVQSGAEVKKPGASVKVSCKASGYTFTSYGINWVRQAPGQGLEWMGWIDAYSGSTNYAQKLQGRVTMTTDTSTSTAYMELRSLRSDDTAVYYCARGPGQYADVDVWGQGTMVTVSS VL: DIQMTQSPSSVSASVGDRVTITCRASQGISSWLAWYQQKPGKAPKLLIYAASSLQSGVPSRFSGSGSGTDFTLTISSLQPEDFATYYCQQANSFPITFGGGTKVEIKR | – | – | – | binds
11 | Clone P IgG (antibody, V domains shown) VH: QVQLVQSGAEVKKPGATVKVSCKASGYTFDSYGIHWVRQAPGQGLEWMGWITAYSGDTVYAQKLQGRVTMTTDTSTSTAYMELRSLRSDDTAVYYCARESGQTSSALGPWGQGTLVTVSS VL: DIQMTQSPSSVSASVGDRVTITCRASQGISRWLAWYQQKPGKAPKLLIYAASSLQSGVPSRFSGSGSGTDFTLTISSLQPEDFATYYCQQGASFPLTFGGGTKVEIKR | – | – | – | binds
